The assay addresses HIV-1 envelope glycoprotein gp120 (YU2) (HIV-1 (YU2)) (UniProt P35961). The assay can be described thus: condition: only with 1 mM EDTA in the running buffer (Langerin ECD at 500 nM); SPR; gp120YU2 functionalised surface; Langerin ECD injected at 500 nM with 1 mM EDTA in the running buffer in place of 4 mM Ca2+; both purified.

Results are given in words; binding and its absence hold for the method and conditions named.

For the substance “Langerin extracellular domain (ECD) (from UniProt Q9UJ71 65-328) (domain or fragment)”, the binding entry is “no binding”.

The values above are taken from article PMC3511376.
